Measurements reported in PubChem BioAssay AID1259254 (NCATS, 2017)

- Test: 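Finding genes that stop cells copying their DNA twice in one cycle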 (primary screen)
- System: human HCT116 colorectal cancer cells
- Reagent: single siRNA against human genes
- Time to read-out: 3 days
- Read-out: 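Imaged Hoechst DNA stain sorts each cell into a cycle phase by DNA amount; per plate, G2 fraction set to 0% for non-targeting and 100% for GMNN siRNA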
- Scale: G2 robust z-score and G2 cells, % of GMNN control: higher = more G2 cells, more excess DNA replication; raw share of cells in G2: higher = larger share of cells with G2 DNA content
- Active means: 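Active siRNAs have a G2 robust z of 5 or more median absolute deviations over the median, which in these data means about 38% or higher of GMNN control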
The whole screen tested about 59,000 reagents; this is an unselected part. About 1,550 of all reagents (2.6%) count as active. 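G2 share is only a proxy for re-replication; each gene was hit by three separate siRNAs, and active genes were retested.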 Raw values vary from plate to plate and are shown uncorrected. A number with no mark means an inactive call. Reagents against one gene are numbered here. No sequences are given here. Not stated in the record: the amount of reagent.

gene knocked down	reagent no.	G2 robust z-score	G2 cells, % of GMNN control	raw share of cells in G2 (%)
TCL1A	1	0.365	5.54	7.59
TCL1A	2	0.688	7.81	6.99
TCL1A	3	-0.584	-1.14	2.95
MEA1	1	0.245	4.69	6.07
MEA1	2	0.86	9.02	6.61
MEA1	3	0.884	9.19	8.88
PPP3CA-DT	1	-0.00486	2.93	5.33
PPP3CA-DT	2	-1.13	-4.95	1.45
PPP3CA-DT	3	-0.65	-1.6	2.42
PHYHIP	1	2.23	18.7	12.3
PHYHIP	2	-0.0266	2.78	4.15
PHYHIP	3	2.54	20.8	13.2
FLJ46284	1	-0.86	-3.08	2.25
FLJ46284	2	2.11	17.8	9.18
FLJ46284	3	0.579	7.04	6.34
SYBU	1	4.75	36.4	18.5
SYBU	2	-0.394	0.197	4.22
SYBU	3	-0.504	-0.58	2.95
CCDC13-AS2	1	-0.249	1.22	3.58
CCDC13-AS2	2	1.55	13.9	9.25
CCDC13-AS2	3	0.578	7.04	5.59
GATA3-AS1	1	-0.0951	2.3	5.74
GATA3-AS1	2	-0.675	-1.78	3.16
GATA3-AS1	3	-0.347	0.524	3.72

Continued, starting with the last 4 of the part before.
gene knocked down	reagent no.	G2 robust z-score	G2 cells, % of GMNN control	raw share of cells in G2 (%)
CCDC13-AS2	3	0.578	7.04	5.59
GATA3-AS1	1	-0.0951	2.3	5.74
GATA3-AS1	2	-0.675	-1.78	3.16
GATA3-AS1	3	-0.347	0.524	3.72
AMOTL2	1	-0.998	-4.05	2.15
AMOTL2	2	0.549	6.83	7.15
AMOTL2	3	-0.771	-2.46	2.38
SLC2A9	1	0.049	3.31	7.88
SLC2A9	2	-1.61	-8.38	1.44
SLC2A9	3	-0.376	0.322	4.47
CEACAM1	1	0.362	5.52	7.04
CEACAM1	2	0.183	4.25	5.57
CEACAM1	3	-0.419	0.0218	4.73
PTPRF	1	1.11	10.8	8.3
PTPRF	2	1.39	12.7	8.14
PTPRF	3	-1.32	-6.29	1.6
ALOX12B	1	-0.667	-1.73	4.13
ALOX12B	2	0.611	7.27	6.7
ALOX12B	3	-0.996	-4.04	3.64
EZHIP	1	0.0171	3.09	5.05
EZHIP	2	1.05	10.3	7.79
EZHIP	3	-0.669	-1.74	3.49
KCNS3	1	-1.32	-6.29	2.76
KCNS3	2	0.848	8.94	9.09
KCNS3	3	-1.05	-4.44	2.57
ESR1	1	-1.37	-6.68	3.43
ESR1	2	0.401	5.79	6.53
ESR1	3	2.76	22.4	11.4
